Source: PubChem BioAssay AID1259308 (NCATS, 2017)

- Purpose: 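Candidate targets for better recombinant protein yield in mammalian cells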 (primary screen)
- System: human HEK293 embryonic kidney cells stably expressing firefly luciferase (HEK-CMV-Luc2-Hygro)
- Reagent: single siRNA against human genes, 0.8 pmol siRNA per well
- Timing: 72 h
- Read-out: 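Luciferase light (ONE-Glo) measured on one replicate plate set and viability (CellTiter-Glo) on the other, scaled to a negative control siRNA, with robust z-scores and luciferase per cell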
- Scale: total luciferase, z-score and total luciferase, % of control: higher = more reporter protein produced
- Active means: 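Active when the median/MAD z-score for overall luciferase is greater than 3; a gene was taken forward for validation with new siRNAs if at least two of its three siRNAs passed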
- Meaning of the calls: active = raised luciferase; inactive = no rise
The whole screen tested about 59,000 reagents; this is a random part of them. About 1,510 of all reagents (2.6%) were called active. 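Calls use total luciferase alone and ignore viability, so some active siRNAs may act by altering cell number.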 Reagents against one gene are numbered here. Further read-outs or replicates are left out here. Reagent sequences are not shown.

{"Gene": "DNAJB7 (DnaJ heat shock protein family (Hsp40) member B7)", "siRNA no.": 1, "total luciferase, z-score": 1.35, "total luciferase, % of control": 109, "call": "inactive"}
{"Gene": "DNAJB7 (DnaJ heat shock protein family (Hsp40) member B7)", "siRNA no.": 2, "total luciferase, z-score": 0.621, "total luciferase, % of control": 94.2, "call": "inactive"}
{"Gene": "DNAJB7 (DnaJ heat shock protein family (Hsp40) member B7)", "siRNA no.": 3, "total luciferase, z-score": 0.0473, "total luciferase, % of control": 82.8, "call": "inactive"}
{"Gene": "COLCA1 (colorectal cancer associated 1)", "siRNA no.": 1, "total luciferase, z-score": -0.798, "total luciferase, % of control": 66, "call": "inactive"}
{"Gene": "COLCA1 (colorectal cancer associated 1)", "siRNA no.": 2, "total luciferase, z-score": 2.31, "total luciferase, % of control": 128, "call": "inactive"}
{"Gene": "COLCA1 (colorectal cancer associated 1)", "siRNA no.": 3, "total luciferase, z-score": 2.24, "total luciferase, % of control": 126, "call": "inactive"}
{"Gene": "FHAD1 (forkhead associated phosphopeptide binding domain 1)", "siRNA no.": 1, "total luciferase, z-score": -0.257, "total luciferase, % of control": 76.8, "call": "inactive"}
{"Gene": "FHAD1 (forkhead associated phosphopeptide binding domain 1)", "siRNA no.": 2, "total luciferase, z-score": -0.168, "total luciferase, % of control": 78.5, "call": "inactive"}
{"Gene": "FHAD1 (forkhead associated phosphopeptide binding domain 1)", "siRNA no.": 3, "total luciferase, z-score": 0.239, "total luciferase, % of control": 86.6, "call": "inactive"}
{"Gene": "CDC50B (cell division cycle 50 P4-ATPase accessory subunit B)", "siRNA no.": 1, "total luciferase, z-score": 0.00423, "total luciferase, % of control": 82, "call": "inactive"}
{"Gene": "CDC50B (cell division cycle 50 P4-ATPase accessory subunit B)", "siRNA no.": 2, "total luciferase, z-score": -0.0446, "total luciferase, % of control": 81, "call": "inactive"}
{"Gene": "CDC50B (cell division cycle 50 P4-ATPase accessory subunit B)", "siRNA no.": 3, "total luciferase, z-score": 0.843, "total luciferase, % of control": 98.7, "call": "inactive"}
{"Gene": "DBNDD1 (dysbindin domain containing 1)", "siRNA no.": 1, "total luciferase, z-score": 0.186, "total luciferase, % of control": 85.6, "call": "inactive"}
{"Gene": "DBNDD1 (dysbindin domain containing 1)", "siRNA no.": 2, "total luciferase, z-score": 3.48, "total luciferase, % of control": 151, "call": "active"}
{"Gene": "DBNDD1 (dysbindin domain containing 1)", "siRNA no.": 3, "total luciferase, z-score": -0.279, "total luciferase, % of control": 76.3, "call": "inactive"}
{"Gene": "NDUFAF2P1 (NDUFAF2 pseudogene 1)", "siRNA no.": 1, "total luciferase, z-score": 1.1, "total luciferase, % of control": 104, "call": "inactive"}
{"Gene": "NDUFAF2P1 (NDUFAF2 pseudogene 1)", "siRNA no.": 2, "total luciferase, z-score": -0.669, "total luciferase, % of control": 68.6, "call": "inactive"}
{"Gene": "NDUFAF2P1 (NDUFAF2 pseudogene 1)", "siRNA no.": 3, "total luciferase, z-score": 1.83, "total luciferase, % of control": 118, "call": "inactive"}
{"Gene": "BACC1 (BPTF associated chromatin complex component 1)", "siRNA no.": 1, "total luciferase, z-score": -0.446, "total luciferase, % of control": 73, "call": "inactive"}
{"Gene": "BACC1 (BPTF associated chromatin complex component 1)", "siRNA no.": 2, "total luciferase, z-score": -2.07, "total luciferase, % of control": 40.7, "call": "inactive"}
{"Gene": "BACC1 (BPTF associated chromatin complex component 1)", "siRNA no.": 3, "total luciferase, z-score": -0.609, "total luciferase, % of control": 69.8, "call": "inactive"}

Targets above whose gene name starts with D or d:
{"Gene": "DNAJB7 (DnaJ heat shock protein family (Hsp40) member B7)", "siRNA no.": 1, "total luciferase, z-score": 1.35, "total luciferase, % of control": 109, "call": "inactive"}
{"Gene": "DNAJB7 (DnaJ heat shock protein family (Hsp40) member B7)", "siRNA no.": 2, "total luciferase, z-score": 0.621, "total luciferase, % of control": 94.2, "call": "inactive"}
{"Gene": "DNAJB7 (DnaJ heat shock protein family (Hsp40) member B7)", "siRNA no.": 3, "total luciferase, z-score": 0.0473, "total luciferase, % of control": 82.8, "call": "inactive"}
{"Gene": "DBNDD1 (dysbindin domain containing 1)", "siRNA no.": 1, "total luciferase, z-score": 0.186, "total luciferase, % of control": 85.6, "call": "inactive"}
{"Gene": "DBNDD1 (dysbindin domain containing 1)", "siRNA no.": 2, "total luciferase, z-score": 3.48, "total luciferase, % of control": 151, "call": "active"}
{"Gene": "DBNDD1 (dysbindin domain containing 1)", "siRNA no.": 3, "total luciferase, z-score": -0.279, "total luciferase, % of control": 76.3, "call": "inactive"}
